PubChem BioAssay AID686937 – Drosophila RNAi Screening Center | 2013
The screen tested about 23,000 reagents; below is a random part of those that have a named target and a result. 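Reduced-secretion tags in replicate 1 do not always agree with the z-scores; no criterion for assigning the tags was given.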 Names joined by + are all predicted targets of the reagent. Not all columns of the deposit are shown. Not given: the amount of reagent.

Aim: 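Genes in the fly needed for secretion of protein constitutively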 (primary screen)
System: Drosophila S2 cells expressing secreted horseradish peroxidase
Knock-down reagent: long dsRNA against Drosophila genes
Duration: about 5.5 days (5 days dsRNA, then 12 h reporter induction)
Treatment: reporter expression induced after 5 days of dsRNA, read 12 h later; inducer not stated
Measurement: 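Chemiluminescent measurement of peroxidase in the medium 12 h after reporter induction, following 5 days of dsRNA, given as a z-score per plate; higher means more secretion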
Reading the numbers: z-score: higher = more reporter secreted into medium

Arp6 (Actin-related protein 6) [DRSC19326] scored z-score, replicate 1 = 0.43.
CG33271 [DRSC10583] scored z-score, replicate 1 = -1.5; phenotype, replicate 1 = reduced secretion.
CG34224 [DRSC05269] showed z-score, replicate 1 = -0.19.
Obp83cd (Odorant-binding protein 83cd) [DRSC12267] scored z-score, replicate 1 = 0.14.
Against spdo (sanpodo) [DRSC13988] the deposit lists z-score, replicate 1 = 0.41.
Argk1 (Arginine kinase 1) [DRSC08959] gave z-score, replicate 1 = 0.81.
For Argk1 (Arginine kinase 1) [DRSC09668] the deposit lists z-score, replicate 1 = 0.19.
Against Argk1 (Arginine kinase 1) [DRSC10460] the deposit lists z-score, replicate 1 = 0.51.
Argk1 (Arginine kinase 1) [DRSC21558] gave z-score, replicate 1 = -6.27; phenotype, replicate 1 = reduced secretion.
For Argk1 (Arginine kinase 1) [DRSC22665], the values are z-score, replicate 1 = 0.33.
CG4960 [DRSC15684] scored z-score, replicate 1 = 0.11.
With knock-down of Hsp70Bb + Hsp70Ba + Hsp70Bc + 1 more [DRSC21247], the screen gave z-score, replicate 1 = -2; phenotype, replicate 1 = reduced secretion.
Silencing of Hsp70Bb + Hsp70Ba + Hsp70Bc + 1 more [DRSC21248] gave: z-score, replicate 1 = -2.47; phenotype, replicate 1 = reduced secretion.
For CG3168 [DRSC18287] the deposit lists z-score, replicate 1 = -0.94.
Knock-down of CG10177 [DRSC14201] came out at: z-score, replicate 1 = 0.45.
With knock-down of CG18417 [DRSC10319] the results were z-score, replicate 1 = 0.24.
For CG6034 [DRSC10572], the entry reads z-score, replicate 1 = 0.28.
Against Rnf11 (Ring finger protein 11) [DRSC21574], the entry reads z-score, replicate 1 = 0.09.
CG10898 [DRSC14279] showed z-score, replicate 1 = 0.4.
Chc (Clathrin heavy chain) [DRSC20229] showed z-score, replicate 1 = -0.09.
Knock-down of CG9452 [DRSC11075] gave: z-score, replicate 1 = 0.39.
Depletion of CG11404 [DRSC11656] resulted in: z-score, replicate 1 = -0.65.
CG17030 [DRSC08503] scored z-score, replicate 1 = 0.26.
Depletion of CG14882 [DRSC15006] resulted in: z-score, replicate 1 = 0.32.
After knock-down of Aduk (Another Drosophila Unc-51-like kinase) [DRSC16451] the results were z-score, replicate 1 = 0.4.
Against Ythdf (YTH N6-methyladenosine RNA binding protein) [DRSC16036], the values are z-score, replicate 1 = 0.19.
Knock-down of Ythdf (YTH N6-methyladenosine RNA binding protein) [DRSC16037] resulted in: z-score, replicate 1 = 0.16.

In a second layout: results already given
target | DRSC id | z-score, replicate 1 | phenotype, replicate 1
Hsp70Bb + Hsp70Ba + Hsp70Bc + 1 more | DRSC21247 | -2 | reduced secretion
Hsp70Bb + Hsp70Ba + Hsp70Bc + 1 more | DRSC21248 | -2.47 | reduced secretion
CG3168 | DRSC18287 | -0.94 | –
